## Library screen at single concentrations

Amino acid sequences for entries named in this document (tags omitted). Residues count along the entry.
UniProt Q8IDJ8, 1-583: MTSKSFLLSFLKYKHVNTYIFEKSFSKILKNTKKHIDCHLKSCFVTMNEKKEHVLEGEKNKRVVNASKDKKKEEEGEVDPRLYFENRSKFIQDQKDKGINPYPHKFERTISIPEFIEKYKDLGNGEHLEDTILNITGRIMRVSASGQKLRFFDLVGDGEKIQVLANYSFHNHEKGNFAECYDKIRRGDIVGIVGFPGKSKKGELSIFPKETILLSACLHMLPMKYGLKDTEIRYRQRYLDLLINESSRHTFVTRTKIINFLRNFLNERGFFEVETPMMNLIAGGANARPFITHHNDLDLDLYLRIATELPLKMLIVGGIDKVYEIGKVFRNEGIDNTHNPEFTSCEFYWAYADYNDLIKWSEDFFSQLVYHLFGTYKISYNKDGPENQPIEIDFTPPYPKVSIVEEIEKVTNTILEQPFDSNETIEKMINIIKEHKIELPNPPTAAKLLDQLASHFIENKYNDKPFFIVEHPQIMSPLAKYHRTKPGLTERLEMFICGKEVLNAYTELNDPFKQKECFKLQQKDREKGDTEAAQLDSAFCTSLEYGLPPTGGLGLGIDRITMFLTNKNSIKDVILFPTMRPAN

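Lysine-tRNA ligase, Plasmodium falciparum 3D7 (UniProt Q8IDJ8). Enzyme assay of the cytosolic lysyl-tRNA synthetase in 384-well plates, read by luminescence. Compounds at 30 µM. Direction is inferred from only a few compounds that gave an IC50; most scored high, so higher reads as stronger inhibition. Size under these conditions: about 69,000 compounds, about 49 of them at 50% or above in at least one test.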

Results are given as percent effect. How 0% and 100% were set is not recorded. Most values in the screen are low, and negative values occur. This is an unselected part of the compounds tested.

Compound	Percent Effect
Cc1nn(C)c(N(C)C)c1CNCc1ccc(N(C)C)nc1	3.014%
O=C(O)[C@@H]1CN(C(=O)CSCCN2CCCC2)C[C@H]1c1ccccc1	6.77%
CCOCC(O)CN1CCN(C(=O)Cc2ccc(C)nc2)CC1 (centres unmarked)	4.548%
O=S1(=O)N(c2ccccc2)C[C@@H](O)[C@]12CCNC2	2.786%
Cc1nc(C(C)C)cc(N2CCC3(CCC(=O)N(CC4CC4)C3)CC2)n1	12.65%
CC(=O)c1cccc(S(=O)(=O)N2CCC(c3noc(C)n3)CC2)c1	4.284%
c1cc(-c2nnc([C@H]3CCNC3)o2)ccn1	5.92%
COc1cccc(CN2CCC(Cc3cnc(CN(C)C)cn3)CC2)c1	-1.044%
Cc1noc(Cl)c1CC(=O)N1CCC(Nc2cccnn2)CC1	0.3925%
COC(=O)C1CCN(C(=O)c2nnc3ccc(Cl)cc3n2)CC1	7.594%
CC(C)n1cnnc1CN(C)C(=O)c1ccc[nH]1	10.35%
Cc1cccc(OCCNC(=O)CN2CCc3cncnc3C2)c1	2.778%
Cc1nc(NS(=O)(=O)c2ccc(C)c(Br)c2)no1	0.3974%
Cc1ccc(CN2CCC[C@@H]3CN(C(=O)c4ccco4)C[C@@H]32)o1	5.185%
c1cncc(-c2nc3c(c(NCC4(c5ccncc5)CC4)n2)CCC3)c1	1.23%
CC(C)Cc1cc(NC(=O)c2ccccc2F)n(C)n1	0.04715%
O=C(CC1CC1)NC[C@]12COC[C@H]1CN(c1ncc(F)cn1)C2	1.304%
Cc1nc(CN2CCC3(CCN(Cc4cnn(C)c4)C3)C2=O)cs1 (centres unmarked)	0.6605%
COc1ccc(CN(C)[C@@H]2CN(C(=O)c3cccnc3)C[C@H]2O)cc1	2.048%
Cc1cc(I)cnc1NC(=O)C(C)(C)C	2.164%
COc1ccncc1NC(=O)C1(c2ccccc2)CC1	0.6414%
NC(=O)CNC(=O)c1cc(Cn2cnc3ccccc32)[nH]n1	3.696%
N#Cc1cccnc1NCCNC(=O)N1CCCSCC1	-2.197%
CN(CC(=O)NCC(C)(C)c1ccc2c(c1)OCO2)c1cnccn1	5.894%
Cc1cc2nc(C(C)C)cc(N(C)CC3CCN(C(C)C)C3)n2n1 (centres unmarked)	-2.121%
CC1(C)CC(N(Cc2ccccc2)Cc2ncc[nH]2)CC(C)(C)N1	1.723%
Cc1nn(C)c2nc(NC3CCNCC3)sc12	2.58%
CCc1nc(C2CCCN2CC(=O)Nc2cc(C)nn2C)no1 (centres unmarked)	0.7847%
O=C(COC1CCCC1)NCCc1noc(-c2ccccn2)n1	2.976%
Cc1nc2ncnn2c2ccn(-c3cccnc3O)c(=O)c12	1.255%
CN(C(=O)NCc1nccn1CCc1ccccc1)C1CCC1	5.582%
CCn1cc(S(=O)(=O)N2CCCC2c2ccc(C)o2)cn1 (centres unmarked)	-2.391%
CC(C)Oc1ccc(C(O)CNCc2ccccc2C(F)(F)F)cc1 (centres unmarked)	7.301%
Cc1ccc(-c2ccccc2CC2CNCCNC2=O)c(C)c1 (centres unmarked)	-0.5936%
CCC(NC(=O)c1ccc2[nH]ccc2c1)C(=O)N1CCOCC1 (centres unmarked)	-9.743%
NC[C@H]1CC[C@H](C(NC(=O)c2ccccn2)c2ccccn2)CC1 (some centres unmarked)	-0.5387%
CSCCNC(=O)c1cc(Br)cn1C(C)C	1.576%
CS(=O)(=O)N1CCCC12CCN(Cc1ccoc1)CC2	3.494%
COc1cc2c(cc1CNC(=O)Cc1ccc(C)nc1)OC(C)C2 (centres unmarked)	6.119%
COc1ccc(C(=O)CCC(=O)NCc2c(C)noc2C)cc1F	-0.9192%
Cc1nn(C)c(Cl)c1CN1CCN(c2nccs2)C(C)C1 (centres unmarked)	0.07274%
CCCc1nccn1-c1ccc(C(O)CN2CCOCC2)cc1 (centres unmarked)	-0.2236%
CC(C(=O)NCc1ccc(N2CCCCC2)nc1)n1cncn1 (centres unmarked)	0.2247%
COc1cccc(CN2CCC3(CC2)CCN(c2ncc(F)cn2)C3)c1	3.264%
Cc1ccc2c(c1)C(=O)NCC1(CCN(C(=O)c3ccnn3C)CC1)O2	-1.453%
Cc1noc(C)c1CNC(=O)c1ccc(NC2CC2)nc1	2.92%
CN(Cc1cc2n(n1)CCCNC2)Cc1cc(-c2ccncc2)no1	-0.4185%
CCOc1ccccc1NC(C)C(=O)N(C)Cc1cccc(F)c1 (centres unmarked)	4.925%
N#CCCSc1nnc(Cc2ccccc2F)o1	8.726%
Cn1c(NCCC(=O)N2CCCC2)c(C#N)c(=O)n(C)c1=O	-3.471%
CCc1[nH]ncc1C(=O)N1CCCC(n2cncn2)C1 (centres unmarked)	0.1265%
CC(C)NC(=O)N1CCCCCC1C1CCN(c2ncccn2)CC1 (centres unmarked)	-1.051%
CCS(=O)(=O)N1C[C@@H](c2nnc(C)o2)C[C@H]2OCC[C@H]21	-0.8298%
Cc1nc(C2CCCN(C(=O)c3cccc4c3OCO4)C2)no1 (centres unmarked)	10.11%
CN(C(=O)C1CCOCC1)[C@@H]1CCC[C@@H](N2CCCC2)[C@@H]1O	0.3897%
Cc1noc(C)c1CN(C)C(=O)c1ccc(NC2CC2)nc1	5.625%
Cc1oncc1C(=O)NCc1cc(=O)n2c(n1)CN(CC(C)C)CCC2	7.312%
c1ccc([C@@H]2CN(Cc3ccncc3)C[C@H]2c2cc[nH]n2)cc1	0.6147%
CC(c1nc(C2CC2)no1)N1CCN(Cc2ccccc2F)CC1 (centres unmarked)	-3.605%
CNS(=O)(=O)CCNCC1(O)CCCN(CCC2CCCCC2)C1=O (centres unmarked)	3.591%
Cc1ccsc1C(=O)N1CC(C(=O)NCC2CC2)C2(CCOCC2)C1 (centres unmarked)	-1.641%
Cc1ccc(O)c(CNc2cccc(CN3CCN(C)CC3)c2)n1	8.336%
CN(C)c1nc2c(c(=O)[nH]1)CCN(C(=O)c1c[nH]c(=O)c(Cl)c1)C2	5.296%
COC(C)c1noc(CN(C)c2ncc(Br)cn2)n1 (centres unmarked)	4.033%
COCCOc1ccccc1C(=O)N(C)Cc1ncc(C)c(OC)c1C	17.79%
CCOc1ccc(NC(=O)CN2CCN(c3nccn3C)CC2)cc1	1.474%
Cn1ccc(CN2CCCC(CNS(C)(=O)=O)C2)cc1=O (centres unmarked)	2.682%
CCCc1noc(CN2CCN(c3nccs3)CC2)n1	3.568%
CCn1cc(S(=O)(=O)N(CCc2ccccc2)Cc2ccn(C)n2)cn1	0.4343%
O=C([C@H]1CCCO1)N1CC[C@H](O)[C@@H]1Cc1ccncc1	4.636%

For reference, 6 entries once more:

CN(Cc1cc2n(n1)CCCNC2)Cc1cc(-c2ccncc2)no1 read -0.4185%.
NC(=O)CNC(=O)c1cc(Cn2cnc3ccccc32)[nH]n1 read 3.696%.
CCOc1ccccc1NC(C)C(=O)N(C)Cc1cccc(F)c1 (centres unmarked) read 4.925%.
Cc1ccc(O)c(CNc2cccc(CN3CCN(C)CC3)c2)n1 read 8.336%.
CN(C(=O)C1CCOCC1)[C@@H]1CCC[C@@H](N2CCCC2)[C@@H]1O read 0.3897%.
Cc1ccc(-c2ccccc2CC2CNCCNC2=O)c(C)c1 (centres unmarked) read -0.5936%.

Measurements from “University of Dundee, Small-Polar-MMV Screening Library” (2021), ChEMBL document CHEMBL3988442.